Paper PMC3166307
No constants are given. Whether binding was seen depends on the method and setting. In cells and extracts the contact can be indirect. Some results given as binding are weak or reduced against the parent protein; the word gives no strength. Sequences can lack the tags named with a protein.

T1: MBP-EB1 (UniProt Q9XZ57)
T1 sequence: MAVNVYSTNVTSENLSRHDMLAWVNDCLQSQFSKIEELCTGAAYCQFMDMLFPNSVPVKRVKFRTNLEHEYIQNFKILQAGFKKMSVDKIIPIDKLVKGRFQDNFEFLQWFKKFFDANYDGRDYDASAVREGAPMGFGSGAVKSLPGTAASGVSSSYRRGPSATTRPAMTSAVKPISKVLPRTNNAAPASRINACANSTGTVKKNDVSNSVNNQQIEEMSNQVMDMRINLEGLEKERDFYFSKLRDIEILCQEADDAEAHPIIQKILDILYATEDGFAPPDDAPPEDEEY


Assays:
[1] = target: T1, MBP-EB1; assay: pull-down; 35S-labelled in vitro translated protein incubated 60 minutes with amylose resin coupled with MBP or MBP-EB1 in DIVEC buffer (50 mM Hepes pH 7.6, 1 mM MgCl2, 1 mM EGTA, 200 mM NaCl, 0.5% TritonX100); autoradiograph; only the target purified
[2] = target: T1, MBP-EB1; assay: pull-down; extract of S2 cells expressing Kebab-GFP incubated 1 hr at 4°C with MBP or MBP-EB1 on amylose resin in DIVEC buffer (50 mM Hepes pH 7.6, 1 mM MgCl2, 1 mM EGTA, 200 mM NaCl, 0.5% TritonX100); western blot with an anti-Kebab antibody; only the target purified

Row | binding [1] | binding [2] | Binder
1 | binds | – | Kebab (kinetochore and EB1 associated basic protein), wild type, in vitro translated (protein, UniProt F0JAI6 1-548, 35S-methionine (radiolabelled)) MSSMAKSPDMRTPGCCSPLRTKELLERQRSSRCTPAKGYLTPRNCQSPKHPEMRIPSIFVTDADYGLERPKQLLQRLERSLYRSSSASKVPPKHSLLASQNRQRTWEGPKTPEFRSRTNKTIPASEPRPRRAKELLEDLRSKHQGTPATKIPSQRNPKENQELSKSHTCIPSSEPQPIRPKLILERERQESITNRLASTSIDRLKTKPPRSSFTSSRLLVPQMGFSYPKDPKRLHESDKGIKLTTSKRKLDFKTELGTDWLRRELEKIGKEWRKKTDYQLRQLISGFVKQLVRLLPFNGITFSHLSRDCYVQQMVEALQQLQYTKKVNKSWLQTPNSTQAIAHVLELLNFLLDVLEHRKGEGMCALPVVSEKQRIEQLASASGTSYDVMSLQQKFENIKIEKERLNNYQESLMPESPVSKDMDKVTERDGNQDFVRLLDFQKETLHELQLQRLRLQEFSELVSLAKIKLKRCCKANKQCIEAFNDQIQDLADCVVLRNRNIGLLTQLHLNDNPKEEELHERMKQLQRLYEDNYSNLLQLNIKPPQGSP
2 | – | binds | Kebab-GFP (protein, UniProt F0JAI6 1-548) MSSMAKSPDMRTPGCCSPLRTKELLERQRSSRCTPAKGYLTPRNCQSPKHPEMRIPSIFVTDADYGLERPKQLLQRLERSLYRSSSASKVPPKHSLLASQNRQRTWEGPKTPEFRSRTNKTIPASEPRPRRAKELLEDLRSKHQGTPATKIPSQRNPKENQELSKSHTCIPSSEPQPIRPKLILERERQESITNRLASTSIDRLKTKPPRSSFTSSRLLVPQMGFSYPKDPKRLHESDKGIKLTTSKRKLDFKTELGTDWLRRELEKIGKEWRKKTDYQLRQLISGFVKQLVRLLPFNGITFSHLSRDCYVQQMVEALQQLQYTKKVNKSWLQTPNSTQAIAHVLELLNFLLDVLEHRKGEGMCALPVVSEKQRIEQLASASGTSYDVMSLQQKFENIKIEKERLNNYQESLMPESPVSKDMDKVTERDGNQDFVRLLDFQKETLHELQLQRLRLQEFSELVSLAKIKLKRCCKANKQCIEAFNDQIQDLADCVVLRNRNIGLLTQLHLNDNPKEEELHERMKQLQRLYEDNYSNLLQLNIKPPQGSP
